Experimental data reported in patent US20110301101 (published 2011).

Experiment: general procedure: Fmoc solid-phase peptide synthesis; Fmoc-Val-Wang resin
Details: whole synthesis

## Phe-Leu-Pro-Ser-Asp-Phe-Phe-Pro-Ser-Val
  crude mass: about 45 g
  isolated mass: 12.5 g
Total yield, scale of the general procedure 62.5 g resin
  isolated yield: about 22%
